The target of the assay is T1, Fermitin family member 1 (FERMT1) (human (endogenous in HK1 and CNE2)) (UniProt Q9BQL6).
T1 sequence: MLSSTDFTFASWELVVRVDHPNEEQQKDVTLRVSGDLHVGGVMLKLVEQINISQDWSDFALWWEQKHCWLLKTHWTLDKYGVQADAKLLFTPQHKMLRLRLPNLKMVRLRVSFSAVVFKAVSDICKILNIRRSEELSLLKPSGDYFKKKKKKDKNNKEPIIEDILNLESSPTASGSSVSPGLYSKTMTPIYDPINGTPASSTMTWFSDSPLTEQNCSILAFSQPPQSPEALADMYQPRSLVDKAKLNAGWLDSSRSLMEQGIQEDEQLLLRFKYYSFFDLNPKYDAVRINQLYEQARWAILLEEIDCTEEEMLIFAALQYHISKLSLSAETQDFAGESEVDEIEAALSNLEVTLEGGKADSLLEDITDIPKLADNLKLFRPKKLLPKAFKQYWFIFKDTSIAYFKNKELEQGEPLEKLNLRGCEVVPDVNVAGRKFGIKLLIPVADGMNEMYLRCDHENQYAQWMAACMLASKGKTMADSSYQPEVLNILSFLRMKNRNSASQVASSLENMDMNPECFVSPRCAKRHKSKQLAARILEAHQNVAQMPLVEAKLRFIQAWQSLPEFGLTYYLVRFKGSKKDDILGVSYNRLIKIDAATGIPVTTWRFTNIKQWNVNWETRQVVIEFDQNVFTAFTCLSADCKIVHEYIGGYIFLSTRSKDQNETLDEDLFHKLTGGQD
Nature of the assay: co-IP; lysates of NPC cells (HK1 and CNE2) in cold co-immunoprecipitation buffer; immunoprecipitation with anti-FERMT1 or anti-NLRP3 antibody on protein A/G magnetic beads; bound protein detected by western blotting.

The chains behind the UniProt entries cited, without tags or fusion partners.
UniProt Q96P20: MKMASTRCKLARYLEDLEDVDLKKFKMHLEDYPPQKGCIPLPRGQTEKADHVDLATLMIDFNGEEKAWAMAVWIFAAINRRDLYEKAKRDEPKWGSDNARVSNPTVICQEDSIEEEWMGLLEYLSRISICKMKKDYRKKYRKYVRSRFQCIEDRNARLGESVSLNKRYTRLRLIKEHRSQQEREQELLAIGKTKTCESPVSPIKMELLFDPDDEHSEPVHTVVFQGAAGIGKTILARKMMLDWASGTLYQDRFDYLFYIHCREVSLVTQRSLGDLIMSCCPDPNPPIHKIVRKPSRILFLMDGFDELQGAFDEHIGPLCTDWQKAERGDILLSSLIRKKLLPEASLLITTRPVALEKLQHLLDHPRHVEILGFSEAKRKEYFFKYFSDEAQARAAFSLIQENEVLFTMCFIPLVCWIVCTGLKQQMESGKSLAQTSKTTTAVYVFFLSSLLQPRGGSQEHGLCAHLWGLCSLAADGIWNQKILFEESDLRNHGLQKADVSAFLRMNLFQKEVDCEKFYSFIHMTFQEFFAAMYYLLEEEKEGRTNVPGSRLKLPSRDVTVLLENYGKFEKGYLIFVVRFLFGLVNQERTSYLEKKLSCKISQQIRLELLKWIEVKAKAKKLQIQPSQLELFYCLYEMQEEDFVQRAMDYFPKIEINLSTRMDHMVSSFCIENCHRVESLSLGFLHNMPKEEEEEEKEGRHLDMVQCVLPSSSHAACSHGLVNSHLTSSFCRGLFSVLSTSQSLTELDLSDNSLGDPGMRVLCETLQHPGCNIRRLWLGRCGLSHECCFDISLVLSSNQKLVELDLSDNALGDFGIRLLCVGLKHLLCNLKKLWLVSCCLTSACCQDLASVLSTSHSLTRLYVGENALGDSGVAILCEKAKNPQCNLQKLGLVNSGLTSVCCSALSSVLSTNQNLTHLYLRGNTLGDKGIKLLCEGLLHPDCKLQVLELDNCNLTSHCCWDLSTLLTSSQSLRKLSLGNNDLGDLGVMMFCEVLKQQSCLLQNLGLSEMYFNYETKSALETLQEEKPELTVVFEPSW

No constants are given. Whether binding was seen depends on the method and setting. Binding seen in cells or lysates may run through a third protein. Some entries that bind do so weakly or less than the wild type.

As to “Nod-like receptor family protein 3 (NLRP3) (from UniProt Q96P20 1-1036)”, the binding entry was “binds”.

The values are drawn from PMC8832859.
